Results are given in words; binding and its absence hold for the method and conditions named. In cells and extracts the contact can be indirect. Binding can be weak; no strength is given. Where a sequence is shown, tags or fusion partners need not be part of it.

Consider one substance from publication doi:10.1101/2022.10.10.511565.

In this assay the target is T1, Lon^TRAP-Twin-Strep-tag (Lon S674A active-site mutant) (C. crescentus) (UniProt B8GX12).
T1 sequence: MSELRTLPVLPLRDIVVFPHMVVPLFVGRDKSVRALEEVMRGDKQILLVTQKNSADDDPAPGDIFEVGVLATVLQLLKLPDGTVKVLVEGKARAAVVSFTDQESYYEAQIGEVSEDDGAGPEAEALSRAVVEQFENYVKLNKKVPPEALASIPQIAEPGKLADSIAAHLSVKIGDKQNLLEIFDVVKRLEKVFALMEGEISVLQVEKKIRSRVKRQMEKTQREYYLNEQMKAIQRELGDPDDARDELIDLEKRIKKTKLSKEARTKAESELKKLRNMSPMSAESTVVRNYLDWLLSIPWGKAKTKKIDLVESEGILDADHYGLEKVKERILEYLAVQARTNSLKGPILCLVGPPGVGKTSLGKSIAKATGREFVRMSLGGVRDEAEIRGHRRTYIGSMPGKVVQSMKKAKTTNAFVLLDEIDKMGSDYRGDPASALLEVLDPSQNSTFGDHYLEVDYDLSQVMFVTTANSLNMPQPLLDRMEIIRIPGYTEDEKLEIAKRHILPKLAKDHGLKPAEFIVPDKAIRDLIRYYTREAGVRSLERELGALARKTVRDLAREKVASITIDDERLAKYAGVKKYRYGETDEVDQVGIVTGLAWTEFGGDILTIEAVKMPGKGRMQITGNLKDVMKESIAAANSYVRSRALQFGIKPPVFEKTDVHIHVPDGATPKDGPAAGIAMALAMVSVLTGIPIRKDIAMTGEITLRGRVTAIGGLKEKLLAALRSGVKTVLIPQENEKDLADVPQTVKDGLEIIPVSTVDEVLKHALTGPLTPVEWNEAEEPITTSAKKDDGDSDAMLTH
In words: pull-down.

Regarding DnaA, the binding entry is given as “binds”.
